About 17,000 (5.5%) of roughly 310,000 compounds were called active. The inconclusive results got no clear call from the source; some entries with a clear call stand among them for comparison. Calls follow the shape of the dose curve; as a rule, active = well fitted inhibition curve with a large enough effect; inconclusive = small, poorly fitted or top-dose-only effect, or effect the other way; inactive = no such curve, though single readings can be large or run the other way. Potencies of inconclusive entries are doubtful fits and often do not repeat.
molecular target: Nuclear receptor ROR-gamma (Mus musculus) (UniProt P51450); experiment: qHTS for inhibitors of ROR gamma transcriptional activity; conditions: Drosophila S2 Gal4-RORgamma UAS-luciferase reporter, 20 h; activity change, negative = inhibition: at 53.6 µM (top of the series); also: nearly all actives have a fitted effect of over 60% in size
Summary of the method: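 ROR gamma transcriptional activity was tracked as Gal4-UAS luciferase output in stably transfected Drosophila Schneider cells, with compound added 1 hr before 700 uM copper sulfate induction and a 20 hr ambient-temperature incubation.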
% is scaled to controls: 0 for no effect and ±100 for the full control effect; potency is read from the fitted curve at half-maximal effect.

Chains of the proteins cited; added tags and fusions are not shown. Lines headed by an entry give the natural chain unless they say otherwise; changes in a name come on top.
UniProt P51450: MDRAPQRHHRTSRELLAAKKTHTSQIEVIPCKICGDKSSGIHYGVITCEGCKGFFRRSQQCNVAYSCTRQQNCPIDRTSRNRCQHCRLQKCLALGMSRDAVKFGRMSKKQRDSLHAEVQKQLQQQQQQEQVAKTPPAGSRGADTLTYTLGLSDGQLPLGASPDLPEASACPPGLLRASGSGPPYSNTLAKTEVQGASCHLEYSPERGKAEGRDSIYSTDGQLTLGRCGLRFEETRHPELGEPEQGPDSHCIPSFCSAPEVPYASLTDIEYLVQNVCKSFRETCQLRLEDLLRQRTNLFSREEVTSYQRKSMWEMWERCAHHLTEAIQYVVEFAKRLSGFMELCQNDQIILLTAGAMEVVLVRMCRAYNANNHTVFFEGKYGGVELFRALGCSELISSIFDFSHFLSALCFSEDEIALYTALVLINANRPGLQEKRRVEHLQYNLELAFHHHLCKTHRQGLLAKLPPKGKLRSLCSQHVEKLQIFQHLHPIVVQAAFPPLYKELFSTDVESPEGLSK

Structure (SMILES)	Potency	activity change, negative = inhibition
CCn1cc(C(=O)N2CCN(c3ccccn3)CC2)c(=O)c2cc(S(=O)(=O)N3CCC(C)CC3)ccc21	inconclusive: 11.2 µM [activator, partial curve]	
CCC(C)OC(=O)C1=C(C)NC(=O)CC1c1ccccc1OC (configuration not stated)		inactive: -4.64%
CN1C(=O)c2ccc(N(C)C)cc2C1=O		inactive: 6.49%
NS(=O)(=O)c1cccc(NC(=O)c2cc(=O)c3ccccc3o2)c1	inconclusive: 6.31 µM [activator, partial curve]	
N#CC1=C(SCC(=O)c2ccccc2)NC2=C(C(=O)CCC2)C1c1ccco1 (configuration not stated)	inconclusive: 35.5 µM [inhibitor, single point]	
COc1ccccc1C(c1c(N)n(C)c(=O)n(C)c1=O)C(C)[N+](=O)[O-] (configuration not stated)		inactive: -0.615%
CC(=O)c1cccc(NC(=O)CCS(=O)(=O)c2ccc(Br)s2)c1		inactive: 17.9%
Cc1cc(Oc2ccccc2)nc(-c2ccccc2O)n1	inconclusive: 25.1 µM [activator, single point]	
CCCCCCC(=O)Oc1cccc(N2C(=O)C3CCCCC3C2=O)c1 (configuration not stated)	inconclusive: 35.5 µM [inhibitor, single point]	
CC(C)c1ccc(/C=C/C(=O)NC(=S)NN2CCOCC2)cc1	active: 3.98 µM	
CCOC(=O)C1C(=O)CC(C)(O)C(C(=O)OCC)C1c1ccco1 (configuration not stated)		inactive: 0.462%
COc1cc(NS(=O)(=O)c2cccc([N+](=O)[O-])c2)c2ncccc2c1	active: 1.12 µM	
O=C(O)CCn1cc(/C=C/C(=O)c2ccc(Cl)cc2)c(-c2ccc(Br)cc2)n1	active: 7.08 µM	
COCCNC(=O)c1ccc2c3n(nc2c1)-c1ccccc1CO3	inconclusive: 11.2 µM [inhibitor, partial curve, poor fit]	
COc1cccc(/C=N/N2CCN(c3ccncc3S(=O)(=O)N3CCCCC3)CC2)c1		inactive: 19.1%
COc1ccc(C(=O)NC(=S)N(C)C2CCCCC2)cc1Br	active: 0.708 µM	
CCc1c(C#N)c(SCc2c(C)noc2C)nc2c1C(=O)CC(C)(C)C2	inconclusive: 15.8 µM [inhibitor, single point]	
COc1cc(CNn2cn[nH]c2=S)cc(Cl)c1OCc1ccc(F)cc1	active: 7.08 µM	
COc1ccc2nc(NC(=O)c3cc(C)oc3C)sc2c1	inconclusive: 1 µM [inhibitor, full curve, poor fit]	
CC(=O)Nc1nc(N2C(=O)c3ccccc3C2=O)n(-c2ccccc2)n1	inconclusive: 35.5 µM [inhibitor, single point]	
COc1ccc(CC(=O)Nc2nc(-c3ccncc3)cs2)cc1	inconclusive: 2.82 µM [activator, partial curve]	
CCCC/C(O)=C/c1nc2ccccc2[nH]c1=O	inconclusive: 15.8 µM [activator, single point]	
COc1ccc(-n2c(C)c(C(C)=O)c(C(C)=O)c2C)cc1OC		inactive: 4.93%
CC1(C)C2CCC(C2)C1(C)NC(=O)CN1CCOCC1 (configuration not stated)	inconclusive: 2.51 µM [inhibitor, full curve, poor fit]	

An excerpt from above in order of SMILES length, low to high:
Structure (SMILES)	Potency	activity change, negative = inhibition
CCC(C)OC(=O)C1=C(C)NC(=O)CC1c1ccccc1OC (configuration not stated)		inactive: -4.64%
CCOC(=O)C1C(=O)CC(C)(O)C(C(=O)OCC)C1c1ccco1 (configuration not stated)		inactive: 0.462%
CCn1cc(C(=O)N2CCN(c3ccccn3)CC2)c(=O)c2cc(S(=O)(=O)N3CCC(C)CC3)ccc21	inconclusive: 11.2 µM [activator, partial curve]	

Following part:

Structure (SMILES)	Potency	activity change, negative = inhibition
Nc1ccc(-c2nnnn2-c2ccc(N)cc2)cc1		inactive: 1.07% [at 1.91 µM]
Fc1ccc(Cl)cc1/C=N/n1cnnc1SCc1ccccc1	inconclusive: 22.4 µM [inhibitor, single point]	
CCN(CCCCO)c1nc(C)nc2c1c(C)c(C)n2-c1c(C)cc(C)cc1C	active: 11.2 µM	
O=C(Nc1nnc(CC2=CCCCC2)s1)c1cccs1	inconclusive: 35.5 µM [inhibitor, single point]	
O=S(=O)(CCOc1ccccc1)c1nc2ccccc2[nH]1	inconclusive: 35.5 µM [inhibitor, single point]	
C/C(=N\NC(=O)c1ccncc1)c1cc2ccccc2o1	inconclusive: 35.5 µM [inhibitor, single point]	
COCCSc1nnc(NC(=O)CSCc2ccccc2)s1	active: 7.94 µM	
Cc1ccc(C2NC(=O)c3ccccc3N2)s1 (configuration not stated)	inconclusive: 4.47 µM [activator, full curve]	
COc1ccc(NC(=O)c2nc[nH]c2C(=O)N[C@@H](C)C(=O)OC(C)(C)C)cc1	active: 11.2 µM	
Cc1oc2c(c1C(=O)NC(Cc1c[nH]c3ccccc13)C(=O)O)CCCC2 (configuration not stated)	inconclusive: 3.16 µM [inhibitor, partial curve, poor fit]	
Cc1ccc(S(=O)(=O)Nc2nc3ccccc3nc2NCc2ccco2)cc1	inconclusive: 1.12 µM [activator, full curve, poor fit]	
CCNc1nc(NCC)nc(N/N=C/c2cc(OC)c(OC)c(OC)c2)n1	inconclusive: 1.26 µM [inhibitor, partial curve]	
O=C(O)c1ccc(S(=O)(=O)N(Cc2ccccc2)C2CCCCC2)cc1		inactive: -4.88%
N#CCCn1cc(C(N)=O)c(-c2ccc3ccccc3c2)n1		inactive: -11%
CN(Cc1cc(Br)cc(Br)c1N)C1CCCCC1	inconclusive: 11.2 µM [activator, partial curve]	
COc1ccc2oc(=O)c(C(=O)Nc3ccccc3C)cc2c1	active: 0.891 µM	
Clc1ccccc1-c1nnc2sc(-c3ccncc3)nn12	inconclusive: 0.708 µM [inhibitor, single point]	
CCCCCCCCCCS(=O)(=O)N/N=C/c1ccc([N+](=O)[O-])cc1	inconclusive: 35.5 µM [inhibitor, single point]	
CCCC(c1nnnn1Cc1cccs1)N1CCN(c2ccc(OC)cc2)CC1 (configuration not stated)	inconclusive: 25.1 µM [activator, single point]	
N#CC1=C(N)OC2=C(CC/C2=C\c2ccccc2)C1c1ccccc1 (configuration not stated)	inconclusive: 0.158 µM [activator, full curve, poor fit]	
Cc1ccc(CNc2nc(-c3cccs3)nc3ccccc23)cc1		inactive: 0.849%
Cc1ccc(C2=NC3(CCCCC3)N=C2SCC(=O)Nc2ccc3c(c2)OCCO3)cc1	inconclusive: 22.4 µM [activator, single point]	
C[C@@H]1CC=C[C@H]2[C@H]1C(=O)N(Cc1ccccc1)[C@H]2c1ccc(-c2ccoc2)cc1F		inactive: 15.2%
COc1ccc(-c2cc(C)no2)cc1S(=O)(=O)N1CCN(c2ccc([N+](=O)[O-])cc2)CC1		inactive: 5.86%

Random excerpt: 3 compounds from above
Structure (SMILES)	Potency	activity change, negative = inhibition
O=C(Nc1nnc(CC2=CCCCC2)s1)c1cccs1	inconclusive: 35.5 µM [inhibitor, single point]	
Cc1ccc(CNc2nc(-c3cccs3)nc3ccccc23)cc1		inactive: 0.849%
COCCSc1nnc(NC(=O)CSCc2ccccc2)s1	active: 7.94 µM	

(cont.)

Structure (SMILES)	Potency	activity change, negative = inhibition
C=CCn1c(SCC(=O)Nc2cc(C)on2)nc2c([nH]c3ccccc32)c1=O	inconclusive: 12.6 µM [inhibitor, single point]	
CCC(=O)Oc1cccc(C(=O)Nc2ccc(-c3nnc(-c4ccco4)o3)cc2)c1	inconclusive: 12.6 µM [activator, single point]	
Fc1cccc(/C=N/n2c(C3CCCCC3)n[nH]c2=S)c1	active: 3.98 µM	
O=C(Nc1cccc([N+](=O)[O-])c1)Nc1ccc2c(c1)CCC2	inconclusive: 11.2 µM [activator, partial curve]	
CCOc1ccc(N2CC(C(=O)NC3CCSC3=O)CC2=O)cc1 (configuration not stated)		inactive: -0.578%
CCc1ccc(C(=O)/C=C2\Sc3ccccc3NC2=O)cc1	inconclusive: 5.01 µM [inhibitor, single point]	
CCOC(=O)N1CCN(C(=O)COc2cccc3c2CCN(Cc2ccccc2C)C3=O)CC1	inconclusive: 14.1 µM [activator, partial curve]	
CN(C(=O)c1ccco1)c1nc(-c2ccccc2)cs1	inconclusive: 8.91 µM [activator, partial curve]	
COc1cc(C(=O)NC(C)C2CC3CCC2C3)cc(OC)c1OC (configuration not stated)	inconclusive: 20 µM [activator, single point]	
O=C(CNc1ccc2ccccc2c1)N/N=C/c1cc2ccccc2nc1Cl	inconclusive: 35.5 µM [inhibitor, single point]	
O=C(CCc1ccccc1)NC(=S)Nc1cccc(Br)c1	active: 11.2 µM	
Cc1ccc(C(=O)Nc2ccc(C(=O)/C=C/c3cccs3)cc2)cc1	inconclusive: 35.5 µM [inhibitor, single point]	
C=CCn1c(SCC(N)=O)nc2scc(-c3ccc(C)o3)c2c1=O	inconclusive: 11.2 µM [inhibitor, single point]	
CC1CCC(NC(=O)C2CC(=O)N(c3ccc(Cl)cc3)C2)CC1 (configuration not stated)		inactive: 8.01%
CCC/C=C(\CCC)C(NS(=O)(=O)c1ccc(Cl)cc1)c1ccc(C(=O)OC)cc1 (configuration not stated)	inconclusive: 35.5 µM [activator, single point]	
CCOc1ccc(CNc2ccc(N3CCCC3)cc2)cc1	inconclusive: 31.6 µM [inhibitor, single point]	
Cc1nnc(NC(=O)CSc2ncnc3c2cnn3-c2ccccc2C)s1	inconclusive: 3.55 µM [inhibitor, single point]	
C/C(=N\NC(=O)c1ccc(Cl)cc1)c1ccc2[nH]ccc2c1		inactive: -43.2%
Cc1cc(Cl)ccc1OC(C)C(=O)N1CCCN(C(=O)C(C)Oc2ccc(Cl)cc2C)CC1 (configuration not stated)		inactive: 37.5%
S=C(NCc1ccco1)N/N=C/c1ccc(Cl)cc1	active: 2.51 µM	
COc1cccc(N2CN(C3CCCCC3)CNC2=S)c1	inconclusive: 11.2 µM [inhibitor, partial curve, poor fit]	
COc1ccc2[nH]c(C(=O)N3CCC(CO)(Cc4cccc(C(F)(F)F)c4)CC3)c(C)c2c1	inconclusive: 14.1 µM [activator, single point]	
O=S1(=O)CC/C(=N\O)c2ccccc21	inconclusive: 0.708 µM [activator, single point]	
O=C(NCC1CC1(Cl)Cl)Nc1ccc(Cl)c(Cl)c1 (configuration not stated)	inconclusive: 15.8 µM [activator, partial curve]	

From PubChem BioAssay AID2551 (National Center for Advancing Translational Sciences (NCATS), 2010)
